The results in this text go back to patent publication US20020091240A1.

By UniProt entry, the sequences of proteins in these tests, tags left out. Residues count along the entry.
UniProt P01579, residues 24-166: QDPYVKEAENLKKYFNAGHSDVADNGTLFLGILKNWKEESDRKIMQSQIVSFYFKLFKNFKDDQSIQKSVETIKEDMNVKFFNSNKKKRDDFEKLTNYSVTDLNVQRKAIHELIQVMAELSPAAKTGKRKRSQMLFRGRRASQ

This test deals with human γ-IFN (human) (UniProt P01579). The test is described as follows: ELISA. For orientation: In an ELISA, binding on a coated surface is turned into a signal by an enzyme label.

No constants are given. Whether binding was seen depends on the method and setting. Some binding calls cover weakened binding; strength is not graded here.

B1: Chimeric AF2 antibody (antibody, V domains shown)
VH: QVQLQQPGADLVMPGAPVKLSCLASGYIFTSSWINWVKQRPGRGLEWIGRIDPSDGEVHYNQDFKDKATLTVDKSSSTAYIQLNSLTSEDSAVYYCARGFLPWFADWGQGTLVTVSA
VL: NIVMTQSPKSMYVSIGERVTLSCKASENVDTYVSWYQQKPEQSPKLLIYGASNRYTGVPDRFTGSGSATDFTLTISSVQAEDLADYHCGQSYNYPFTFGSGTKLEIK
Take B1: the binding result is listed as “binds”.
